The campaign covered roughly 52,000 sequences. About 210 (0.4%) were called active.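 Rule for the calls: active = gene whose silencing raises cell survival under the drug, median off-target-corrected z-score across its silencing RNAs 2 or more; inactive = the rest.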 Some of the results follow.

This experiment can be described thus: Resistance to Poly (ADP-Ribose) Polymerase inhibitor: Gene Identification via Genome-wide siRNA Screen. Particulars: mouse BRCA2 R2336H ES cells, olaparib, CellTiter-Glo viability; hits give high values. The procedure, abridged:
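Genome-wide siRNA screen (3 siRNAs/gene, 20 nM) in mouse ES cells carrying hypomorphic BRCA2 R2336H; olaparib 500 nM added 48 h post-transfection, CellTiter-Glo viability 72 h later. Normalized to plate-median negative control; MAD z-scores, gene median, seed-adjusted.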
(In general: ATP-based viability assays read luminescence as a measure of living cells.)
Take CGGUAUAGUAGAUACUUAATT against Picalm: the z-score was inactive: 0.107.

For CCUUCUAAUCUUUUUGCCUTT against Polr3k, the z-score was inactive: 1.21.

Regarding GCUCAUUCUCAAAGGCUUATT against Rdh12, the z-score was inactive: -0.689.

In the case of GGGAUGGACAUCUUGUUUUTT against Eif4a1, the z-score was inactive: -1.86.

Take CCAUGGACCCUUUUUUUGGTT against BC020025: the z-score was inactive: 1.64.

For the sequence GCCAUUGCUAUCCAUCGUGTT against Bat1a, the z-score is inactive: -2.21.

For GGCAGCCCUCAAGUUAAUCTT against Zfp612, the z-score is inactive: -1.81.

As for GGAUAUGGAAGAAGUUGUGTT against Olfr1089, the z-score was inactive: 0.483.

For the sequence GGACUUCUUACUGGAAUCATT against AI315119, the z-score was inactive: 0.036.

In the case of “GCAAGACUGACCUAGAUUATT against 6530401P13”, the z-score was inactive: -0.601.

As for GGAUGGAUGACUCCUAUUGTT against Gse1, the z-score is inactive: -2.

For the sequence GAUGCCUGACGAGAUAUUUTT against Scgb3a1, the z-score is inactive: -0.179.

As for GGUGUUGUGAGUGAAGAGGTT against Rbed1, the z-score was inactive: -1.17.

Consider GGCCAGUAGAUCCUUCUAATT against Fgf16, for which the z-score is inactive: 0.554.

For GGUAUGAAACCGUAUAAAUTT against Zfp60, the z-score is inactive: 0.135.

As for GGACUUCUCCUUUAAUAAUTT against Cox7a2l, the z-score was inactive: -0.0527.

With GGGCAGCAUCGGACUAAAUTT against Agtr1, the z-score was inactive: 1.22.

Take GGAAGAAAGGAAAAAAGCUTT against Gnrhr: the z-score is inactive: 1.69.

Turning to CCACUGACAACAAGUUGUUTT against Glra2, the z-score is inactive: -1.23.

GGUUUUUCUCCUUGGUUAUTT against BC031593: the z-score was inactive: 0.00568.

Consider GGUUCUUCAAGUCAGAUUUTT against Atp6v1b1, for which the z-score is inactive: 0.0425.

Consider “GCAAUGGAGAGCAGAAAUATT against C230012O17Rik”, for which the z-score was inactive: -0.723.

Consider GCGUGACCAGUUCAGUGAATT against Tnfrsf17, for which the z-score is inactive: -1.45.

On to GGAGAGGAAAAUCAUCCUGTT against Rims2, for which the z-score was inactive: 1.88.

As to “GGCUCCUGUAUCUUGAUGUTT against A230102I05Rik”, the z-score is inactive: 0.169.

As for GGUAAGGAAAACAAAUAUGTT against En1, the z-score was inactive: 0.217.

Take “AUUCUGAACACUCCUCGGATT against C630041L24Rik”: the z-score was inactive: -0.69.

With GGCCUUUAUUCAGAUGUCATT against Zfp96, the z-score is inactive: -1.58.

In the case of GCCACCAACUCAGGUAGAATT against Nrip2, the z-score is inactive: 1.2.

Consider GGAAGAUGGGAAGAAAUUCTT against Eif3s4, for which the z-score was inactive: -2.14.

Regarding GGCCUUGUACUUACACAAGTT against Rspondin, the z-score is inactive: 0.508.

As to CCAUGAAGAUAUCCUACACTT against Olfr77, the z-score was inactive: -0.285.

Consider GGAUGUACAUUCUACCUAUTT against Bap1, for which the z-score was inactive: 2.37.

As for GGAGUUGCCCUCAUCUUCATT against Casp6, the z-score was inactive: -0.427.

In the case of GGAAGCAUGCAAUGAUAUUTT against 4.93E+26, the z-score is inactive: -0.275.

As for GUUCUAUGUCCGGGAGCCATT against Ndufc1, the z-score is inactive: -2.39.

Regarding GGACCAAUUUUUUCAGUUGTT against Rhag, the z-score is inactive: -0.771.

Take “GCAGGUUGCACCAUGUAGATT against 2900084M01Rik”: the z-score is inactive: 1.2.

On to GCUCUACAUGAAAACACUGTT against AU041707, for which the z-score was inactive: -0.539.

“GCUGUUCAUUGAGUAUCCCTT against 6430527G18Rik”: the z-score was inactive: 0.0522.

Consider GGGAUUGGUGAAGAAAAAATT against Pcoln3, for which the z-score is inactive: -1.49.

With GGUGCUAGAUGAGCUGACCTT against Krt1-16, the z-score is inactive: -0.398.

On to GCCACCACUUAGUUUAACATT against Cpa4, for which the z-score was inactive: 0.597.

For the sequence GGCUAAGAGACGAAACACUTT against Rpl37, the z-score was inactive: -3.35.

Turning to “GGGUGAAUUUCAAAAGCUATT against D6Ertd538e”, the z-score is inactive: -1.18.

In the case of GACAUUUGUAUGCAGUCAUTT against V1ri9, the z-score was inactive: 0.237.

Consider GCCCAAAAGACCUCAUAUUTT against Lef1, for which the z-score is inactive: -0.891.

As for CCUAUUGUGCAAAUGAACCTT against Cd164, the z-score was inactive: -0.152.

For the sequence “GGCCAGCAGACUAUUUAUUTT against 1110021N07Rik”, the z-score was inactive: -1.57.

Regarding “CCUCAGCAAAUAUAUGGCATT against 1700008F21Rik”, the z-score was inactive: 1.08.

Take GCUAGUUACAUCAUAUGCUTT against Gpr171: the z-score is inactive: 0.694.

With “GCUGAGACAUGUGGAGUAUTT against 4931429L15Rik”, the z-score was inactive: -2.9.

Consider GGUCAGGUCUUUUUAUACATT against Zfp354a, for which the z-score is inactive: 2.18.

On to “GGCUCUGGGUCAACAUUUGTT against 2310011J03Rik”, for which the z-score was inactive: -0.427.

For GGCAGAAACGUGUCACCAUTT against Tsx, the z-score is inactive: -1.42.

In the case of CCUACAGAGUACAGAUUAUTT against Atp6v0d1, the z-score was inactive: -2.2.

Take GGACCUGACUCAGCUCUUUTT against Dpp7: the z-score is inactive: -0.554.

GGACCAAGAGAUUUGCUAUTT against Abcc2: the z-score was inactive: 0.125.

GGACAAUGCAGCCUACUACTT against Gnaz: the z-score was inactive: -0.138.

CCAAUUACUUGAAUUUAGCTT against Gata5: the z-score is inactive: 0.483.

For “GGAAACUCUUCACCACAAATT against 4931420D14Rik”, the z-score is inactive: -0.704.

In the case of GGAGAUUGACUUCAAGGAGTT against S100a5, the z-score was inactive: -0.0992.

CCCACAUUGCUUACCUUUCTT against Zfp523: the z-score was inactive: -0.0271.

As for CCUUCUACUGGCAACCUAUTT against Zfp110, the z-score is inactive: -1.48.

Take GGAAUCCUGGAUUGAGGAATT against Rhod: the z-score is inactive: -0.926.

On to GGAGAAGGGUGUUUCAGCUTT against Usp29, for which the z-score is inactive: 0.264.

As for CGAAACAUCAAUAAAUGCUTT against Penk1, the z-score is inactive: 0.294.

For CGUAGUGUUCUGUGUUUAUTT against Mif, the z-score was inactive: 0.539.

Take “GGAGGUAGGAAGGAAGAAGTT against 1500003O22Rik”: the z-score was inactive: 0.13.

As to GCUUUGUGCCAUCUCUACATT against Tlr13, the z-score was inactive: -2.31.

Take GCACUUUACCCACUGAACCTT against AA881470: the z-score was inactive: -0.347.

Consider CCAUGGUCUUGAAUUAUUCTT against Syt4, for which the z-score was inactive: 1.93.

Take GUCAUGAAUGGGCUACUAATT against Olfr1447: the z-score was inactive: -0.797.

On to GCAAUUGAUUGACUGAGAATT against Calm3, for which the z-score was inactive: 0.789.

For the sequence GGUGAUGUGGAAUAAAUUGTT against Odf4, the z-score is inactive: 0.64.

Take GGUCUUUUGUUACCUUAGUTT against Sult1b1: the z-score is inactive: -0.455.

As to GCCUAAGAUCUGGACCUAATT against Timm44, the z-score is inactive: -1.82.

On to “CCAUCUUACAGAUUACCAATT against 1200007B05Rik”, for which the z-score is inactive: -0.892.

Regarding GCUAGAAGUAGAGAAUCAGTT against Plekhh2, the z-score is inactive: 1.28.

On to GGGAUGCUUUGUGGCUGUATT against Olfr837, for which the z-score was inactive: -2.42.

As for “GGACCUUUAGCUGGUUUAGTT against A830006N08Rik”, the z-score was inactive: -2.51.

For the sequence GUCUUUUUUCUUUUUGACCTT against Olfr168, the z-score was inactive: -0.448.

GGGAUGGGCUUCUGAAUAATT against V1rh8: the z-score was inactive: -2.51.

Take GGCUUUAGAGACAAUAUCATT against AA407930: the z-score was inactive: -0.282.

As to GCUCGCUAAAGUGAUUAAATT against LOC433384, the z-score is inactive: 1.02.

For the sequence “GCAAAGCUUAAAAGUGAAGTT against C730025P13Rik”, the z-score is inactive: 0.151.

Consider “CCUAAGAUAGACUAAAUCGTT against 1700001G17Rik”, for which the z-score was inactive: 0.0267.

For the sequence GGAGCUGGAGAAGUUACUUTT against Amigo3, the z-score is inactive: 1.11.

In the case of GGGAUGUUCUAUGUAAUAATT against Cog4, the z-score is inactive: 0.671.

With “GGUUUGGAAUCAAAACAAGTT against 5830433M19Rik”, the z-score is inactive: 0.872.

Regarding GGAAGAUUGAAAUAGGCGATT against Mds1, the z-score was inactive: 1.06.

Consider “GGGCAUCUUGUAUAUCUGGTT against 4732415M23Rik”, for which the z-score is inactive: -0.395.

For GCACGAUGUACCUGAAUCUTT against Ifitm5, the z-score was inactive: -0.324.

Consider GGCACAAGUAACAGGCUCATT against Egfr, for which the z-score is inactive: -2.19.

“GCUUCGACAAAAGAAGAUGTT against C130022K22Rik”: the z-score is inactive: -0.485.

On to “GGAUUGGUUAUCAGGGCUATT against 2510038A11Rik”, for which the z-score is inactive: -1.93.

For the sequence ACACCUGCCUGCAUCUACUTT against Tcp10a, the z-score is inactive: 1.25.

Regarding GGCUUCAGCAAAGACAAUGTT against Ache, the z-score is inactive: -0.637.

Turning to GGAAAGACCUAAGCAAUUATT against Btbd5, the z-score is inactive: -0.251.

Take GGGAAGAGUUUCACGCUCATT against Runx3: the z-score was inactive: 0.761.

As for CCUGUUGCUAAUCUCACAATT against Fcgr3, the z-score is inactive: -0.575.

For GAAGCCUAACCUCACCCUGTT against Ang1, the z-score is inactive: 0.195.

Consider GGAUCCAGAGGCUGUUAAATT against Casp9, for which the z-score is inactive: -0.629.

Turning to GGUGGUAGAUAUUGUCCAUTT against Olfr420, the z-score is inactive: -0.254.

Values taken from PubChem BioAssay AID1347423 (Functional Genomics Laboratory (NCATS/FGL), 2020).
